Assay results from PubChem BioAssay AID493014 (National Center for Advancing Translational Sciences (NCATS), 2011).
Some of the results follow. These are further read-outs of the screen, such as a control signal, another cell line or another target. No call is given for them. Compounds called inactive in the main read-out are mostly missing here. Words in brackets tell the shape of the fitted curve; partial curves, single points and poor fits give uncertain potencies.

Assay: qHTS Assay to Find Inhibitors of Chronic Active B-Cell Receptor Signaling
Conditions: ABC-DLBCL IkBa-CBG/CBR reporter, luminescence ratio (green luciferase fused to IkBa over red control in TMD8 lymphoma cells), 4 h
Method in brief: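 Concentration-response series (up to 46 uM) were applied to TMD8 dual-reporter cells for 4 h at 37C with doxycycline. Green/red ratio, after filter-overlap correction, defined %Activity; red signal alone was normalised to basal cells and zero luminescence.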

[1] = measured here: CBR red luminescence, cell number
[2] = measured here: IkBa-CBG green luminescence

Row | SMILES | AC50 [1] | AC50 [2]
1 | O=C(COC(=O)c1cccnc1Cl)Nc1ccc(N2CCCCC2)cc1 | 0.164 µM [rising, full curve, poor fit] | 
2 | O=S(=O)(Nc1ccc(-c2ccc(N3CCOCC3)nn2)cc1)c1cc(Cl)ccc1Cl |  | 16.4 µM [rising, partial curve, poor fit]
3 | CC(=NNC(=O)CSc1nc2ccccc2o1)c1ccco1 | 5.8 µM [falling, partial curve, poor fit] | 
4 | Cn1cccc1C(=O)Nc1ccc(N2CCOCC2)cc1 | 7.31 µM [falling, partial curve] | 
5 | COc1cc(NC(=O)c2ccccc2)cc(OC)c1 | 4.47 µM [falling, full curve, poor fit] | 
6 | CCOC(=O)N1CCN(C(=O)CN(c2ccccc2OC)S(=O)(=O)c2ccc(OC)cc2)CC1 | 7.94 µM [falling, partial curve, poor fit] | 
7 | Clc1cccc(Oc2cnc3ccccc3n2)c1 | 15.8 µM [rising, single point] | 
8 | COc1ccccc1NC(=O)N(CCN1CCOCC1)Cc1cc2cc(C)cc(C)c2[nH]c1=O | 22.4 µM [rising, partial curve, poor fit] | 
9 | Cc1ccc(N2C(N)=C(C#N)C(c3cccnc3)C3=C2CC(C)(C)CC3=O)cc1 (stereo unspecified) | 0.92 µM [rising, partial curve, poor fit] | 
10 | C/C(=N\NS(=O)(=O)c1ccc(Br)cc1)c1ccc2c(c1)OCO2 | 12.6 µM [falling, single point] | 
11 | Cc1ccc(S(=O)(=O)N(C)C)cc1NC(=O)COC(=O)c1ccc2ccccc2n1 | 16.4 µM [rising, partial curve, poor fit] | 
12 | COc1cc([N+](=O)[O-])ccc1NC(=O)COC(=O)c1ccc(NC(N)=O)cc1 | 35.5 µM [falling, single point] | 
13 | O=C(O)C1SCCN1S(=O)(=O)c1ccc(N=NN2CCOCC2)cc1 (stereo unspecified) | 3.16 µM [rising, single point] | 
14 | COc1ccc(NC(=O)C(Cl)=C(Cl)Cl)cn1 | 2.82 µM [falling, partial curve] | 
15 | Cc1ccc(NC(=O)Cn2cnc3c(NCc4ccccc4)ncnc32)cc1C | 25.9 µM [rising, single point] | 
16 | CC1CCN(C(=O)CSc2nc3cccnc3n2C)CC1 | 2.82 µM [falling, full curve, poor fit] | 
17 | CCN1CCN(C(c2cc(OC)ccc2OC)c2nnnn2Cc2ccccc2)CC1 (stereo unspecified) | 12.6 µM [falling, partial curve, poor fit] | 
18 | CC(=O)Nc1cccc(NC(=O)c2cccc(-c3ccc(O)cc3)c2)c1 | 0.708 µM [falling, full curve, poor fit] | 
19 | COc1ccc(-c2nsc(SCC(=O)Nc3ccc4c(c3)OCO4)n2)cc1 | 23.1 µM [falling, single point] | 
20 | COc1ccc(/C=N/n2c(COc3ccccc3)n[nH]c2=S)cc1OC | 6.31 µM [rising, full curve, poor fit] | 
21 | Cc1ccc(CNc2ccc(N3C(=O)CCCC3=O)cc2[N+](=O)[O-])cc1 | 8.2 µM [rising, partial curve, poor fit] | 

Single entries from the entries so far.
Value for CC(=O)Nc1cccc(NC(=O)c2cccc(-c3ccc(O)cc3)c2)c1 under AC50 [1]: 0.708 µM [falling, full curve, poor fit]
Value for Cc1ccc(CNc2ccc(N3C(=O)CCCC3=O)cc2[N+](=O)[O-])cc1 under AC50 [1]: 8.2 µM [rising, partial curve, poor fit]

Later entries

Row | SMILES | AC50 [1] | AC50 [2]
22 | COc1ccc(C(=O)OCC(N)=O)cc1[N+](=O)[O-] | 9.2 µM [rising, partial curve, poor fit] | 
23 | CC(C)(C)OC(=O)NCCCCCNC(=O)c1nc[nH]c1C(=O)NCc1ccc(CNC(=O)OC(C)(C)C)cc1 | 29.1 µM [falling, single point] | 
24 | CC(=O)NC1(C(F)(F)F)C(=O)Nc2c1c(=O)[nH]c(=O)n2-c1ccccc1 (stereo unspecified) | 25.1 µM [rising, partial curve, poor fit] | 
25 | CC(=O)Oc1ccc2c(=O)oc(-c3ccccc3C)nc2c1 | 12.6 µM [falling, partial curve, poor fit] | 
26 | CCOc1cc2c3c(c1)C1(C(=O)N3C(C)(C)C=C2C)C(C#N)=C(N)Oc2cc(O)ccc21 (stereo unspecified) | 35.5 µM [falling, partial curve, poor fit] | 
27 | CCN1C(=O)c2cccc3c(S(=O)(=O)NCC4CCCO4)ccc1c23 (stereo unspecified) | 11.2 µM [rising, single point] | 
28 | Cc1ccc(S(=O)(=O)CCC(=O)c2cccc([N+](=O)[O-])c2)cc1 | 11.2 µM [falling, partial curve] | 6.31 µM [falling, single point]
29 | CCCn1c(=NC(=O)CS(=O)(=O)c2ccccc2)sc2cc(S(C)(=O)=O)ccc21 | 32.6 µM [falling, single point] | 
30 | COc1ccc2cc(CN(CC3CCCO3)C(=S)Nc3ccccc3)c(=O)[nH]c2c1 (stereo unspecified) | 10 µM [falling, partial curve, poor fit] | 11.2 µM [rising, single point]
31 | CC(=O)NNC(=O)c1[nH]c2ccc(Br)cc2c1-c1ccccc1 | 35.5 µM [falling, single point] | 
32 | CC(C)c1ccc(C(=O)NCCCN(C)C)cc1 | 4.11 µM [rising, partial curve, poor fit] | 
33 | COc1ccc(NC(=O)CCC(=O)OCc2ccc(Br)cc2)cc1 | 2.91 µM [rising, full curve] | 
34 | N#Cc1c2c(c(-c3ccccc3)[nH]c1=O)CCCC2 | 31.6 µM [rising, single point] | 
35 | CS/C(N)=N/N=C/c1cc(Br)cc(Br)c1O |  | 2.24 µM [falling, partial curve, poor fit]
36 | COc1cc(-c2noc(CCC(N)=O)n2)cc(OC)c1OC | 35.5 µM [rising, partial curve, poor fit] | 
37 | Cc1ccc(C(=O)O/N=C(\N)c2cccc([N+](=O)[O-])c2)cc1 | 5.62 µM [falling, single point] | 
38 | COc1ccccc1/C=C/C=N/NC(=O)c1ccncc1 | 23.1 µM [falling, partial curve] | 
39 | COc1ccccc1N1CCN(C2CCCN(C(=O)c3snnc3C)C2)CC1 (stereo unspecified) | 8.91 µM [rising, partial curve, poor fit] | 
40 | Nc1c(-c2cccc([N+](=O)[O-])c2)nc2ccccn12 | 9.2 µM [rising, partial curve, poor fit] | 
41 | N#CC1=C(N)C(C#N)(C#N)[C@H](c2cccnc2)[C@H]2CN(C(=O)OCc3ccccc3)CC=C12 | 29.1 µM [falling, single point] | 20.6 µM [falling, partial curve]
42 | O=c1oc2ccccc2c(O)c1/C=C1\C=Nc2ccccc21 | 1.12 µM [falling, full curve] | 

Row | SMILES | AC50 [1] | AC50 [2]
43 | O=C(NCC1CC1)c1onc(CSc2nc3ccccc3[nH]2)c1C(=O)NCC1CC1 | 3.16 µM [falling, single point] | 11.2 µM [rising, partial curve, poor fit]
44 | Cc1ccc(C2(c3noc(CN(C)CC4CCCCO4)n3)CCCC2)cc1 (stereo unspecified) | 35.5 µM [rising, single point] | 
45 | O=C(Cc1ccccc1)Nc1ccc(S(=O)(=O)N2CCCC2)cc1 | 6.31 µM [falling, partial curve, poor fit] | 
46 | Cc1cc(C)nc(SCCn2c(N3CC(C)OC(C)C3)nc3c2c(=O)n(C)c(=O)n3C)n1 (stereo unspecified) | 3.16 µM [rising, single point] | 
47 | C/C(=N\Nc1nc2ccccc2[nH]1)c1cc2ccccc2o1 | 1.46 µM [falling, full curve] | 
48 | COc1ccc(C(=O)Nc2cc3c(cc2OC)CCCC3)cc1Br | 5.01 µM [rising, full curve, poor fit] | 
49 | Cc1cc(NC(=O)c2cccc(S(=O)(=O)N3CCCCC3)c2)no1 | 11.2 µM [falling, partial curve, poor fit] | 
50 | COc1ccc2[nH]c3c(NCCC4=CCCCC4)ncnc3c2c1 | 20 µM [falling, partial curve, poor fit] | 
51 | CCc1ccc(NC(=O)c2ccc(NC3=NC4CS(=O)(=O)CC4S3)cc2)cc1 (stereo unspecified) | 8.91 µM [rising, partial curve] | 
52 | COc1cccc(C2NC(=O)NC(C)=C2C(=O)Nc2ccc(C)cc2)c1 (stereo unspecified) | 2.59 µM [falling, partial curve, poor fit] | 
53 | CC(C)OC(=O)/C(C#N)=C/c1cn(C)c2ccccc12 | 2.82 µM [rising, partial curve, poor fit] | 
54 | CCSc1nnc(NC(=O)NC(CC)(C(F)(F)F)C(F)(F)F)s1 | 6.31 µM [rising, full curve] | 
55 | Cc1c(C(=O)NCCSCc2ccco2)cccc1[N+](=O)[O-] | 0.146 µM [rising, full curve, poor fit] | 
56 | CN(CCOc1ccc(Cl)cc1)CC(=O)Nc1ccc(OC(F)(F)F)cc1 | 35.5 µM [falling, single point] | 
57 | COc1ccccc1N(CC(=O)N/N=C(\C)c1ccccc1O)S(=O)(=O)c1ccc(C)cc1 | 3.55 µM [falling, partial curve] | 
58 | Cc1ccc(C(=O)n2cnc3ccccc32)cc1C | 0.1 µM [rising, full curve, poor fit] | 
59 | COc1cc(C=NNC(=O)c2ccc(NS(=O)(=O)c3cccs3)cc2)cc(Br)c1O | 20.6 µM [falling, single point] | 
60 | CCOC(=O)Nc1ccccc1N1C(=O)c2ccccc2C1=O | 0.794 µM [rising, full curve, poor fit] | 
61 | O=C1c2ccccc2C(=O)N1C1CCCCC1 | 12.6 µM [rising, partial curve, poor fit] | 
62 | CCOC(=O)Cn1c(-c2cccnc2)nc(-c2ccccc2)c1-c1ccccc1 | 0.562 µM [falling, full curve, poor fit] | 
